Our source for the binding values is article PMC10517925.

By UniProt entry, the sequences of proteins in these tests, tags left out.
UniProt Q9QZL0: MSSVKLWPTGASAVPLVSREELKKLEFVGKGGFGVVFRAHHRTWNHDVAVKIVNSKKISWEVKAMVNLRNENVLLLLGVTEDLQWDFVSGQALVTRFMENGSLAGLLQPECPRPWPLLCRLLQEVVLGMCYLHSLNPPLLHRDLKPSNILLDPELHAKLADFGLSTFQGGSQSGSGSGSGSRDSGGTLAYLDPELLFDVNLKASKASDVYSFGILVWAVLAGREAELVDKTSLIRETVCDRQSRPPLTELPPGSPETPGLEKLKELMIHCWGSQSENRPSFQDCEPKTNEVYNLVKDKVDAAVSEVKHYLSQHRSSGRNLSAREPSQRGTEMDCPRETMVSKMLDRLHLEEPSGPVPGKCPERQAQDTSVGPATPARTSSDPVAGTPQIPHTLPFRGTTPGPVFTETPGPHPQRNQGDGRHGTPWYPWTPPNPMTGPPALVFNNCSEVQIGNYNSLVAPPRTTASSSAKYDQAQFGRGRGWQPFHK

These are yes or no findings as the source states them, for the method shown. In cells and extracts the contact can be indirect. Some entries that bind do so weakly or less than the wild type.

One assay deals with Mouse RIPK3-flag (mouse) (UniProt Q9QZL0). Description: co-IP; anti-flag M2 beads overnight with the soluble fraction of lysates (20 mM Tris-HCl pH 7.5, 120 mM NaCl, 1% Triton X-100) of mouse RIPK3-flag reconstituted RIPK3-KO L929 cells treated with TSZ for indicated times; cells pretreated 1 h with vehicle, Ibrutinib (15 uM) or Quizartinib (2 uM); immunoblot. On the technique in general: In western blotting, separated proteins are transferred to a membrane and probed.

The target of assay [1] is Mouse RIPK3-flag (mouse), Q9QZL0. The description is as above. To be noted: remark: other sources report otherwise.

B1: mixed lineage kinase domain-like protein (MLKL), mouse (protein, UniProt Q9D2Y4 1-472)
chain: MDKLGQIIKLGQLIYEQCEKMKYCRKQCQRLGNRVHGLLQPLQRLQAQGKKNLPDDITAALGRFDEVLKEANQQIEKFSKKSHIWKFVSVGNDKILFHEVNEKLRDVWEELLLLLQVYHWNTVSDVSQPASWQQEDRQDAEEDGNENMKVILMQLQISVEEINKTLKQCSLKPTQEIPQDLQIKEIPKEHLGPPWTKLKTSKMSTIYRGEYHRSPVTIKVFNNPQAESVGIVRFTFNDEIKTMKKFDSPNILRIFGICIDQTVKPPEFSIVMEYCELGTLRELLDREKDLTMSVRSLLVLRAARGLYRLHHSETLHRNISSSSFLVAGGYQVKLAGFELSKTQNSISRTAKSTKAERSSSTIYVSPERLKNPFCLYDIKAEIYSFGIVLWEIATGKIPFEGCDSKKIRELVAEDKKQEPVGQDCPELLREIINECRAHEPSQRPSVDGRSLSGRERILERLSAVEESTDKKV
For B1, the binding result in the assay with Mouse RIPK3-flag (mouse) is reported as “binds”.

B2: receptor-interacting serine/threonine kinase 1 (RIPK1), mouse, Q60855 1-656 (protein)
chain: MQPDMSLDNIKMASSDLLEKTDLDSGGFGKVSLCYHRSHGFVILKKVYTGPNRAEYNEVLLEEGKMMHRLRHSRVVKLLGIIIEEGNYSLVMEYMEKGNLMHVLKTQIDVPLSLKGRIIVEAIEGMCYLHDKGVIHKDLKPENILVDRDFHIKIADLGVASFKTWSKLTKEKDNKQKEVSSTTKKNNGGTLYYMAPEHLNDINAKPTEKSDVYSFGIVLWAIFAKKEPYENVICTEQFVICIKSGNRPNVEEILEYCPREIISLMERCWQAIPEDRPTFLGIEEEFRPFYLSHFEEYVEEDVASLKKEYPDQSPVLQRMFSLQHDCVPLPPSRSNSEQPGSLHSSQGLQMGPVEESWFSSSPEYPQDENDRSVQAKLQEEASYHAFGIFAEKQTKPQPRQNEAYNREEERKRRVSHDPFAQQRARENIKSAGARGHSDPSTTSRGIAVQQLSWPATQTVWNNGLYNQHGFGTTGTGVWYPPNLSQMYSTYKTPVPETNIPGSTPTMPYFSGPVADDLIKYTIFNSSGIQIGNHNYMDVGLNSQPPNNTCKEESTSRHQAIFDNTTSLTDEHLNPIRENLGRQWKNCARKLGFTESQIDEIDHDYERDGLKEKVYQMLQKWLMREGTKGATVGKLAQALHQCCRIDLLNHLIRASQS
Take B2: in assay [1], the binding result is “binds”.
